{"source": "PubChem BioAssay AID1259254 (NCATS, 2017)", "purpose": "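Finding genes that stop cells copying their DNA twice in one cycle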 (primary screen)", "cell system": "human HCT116 colorectal cancer cells", "knock-down reagent": "single siRNA against human genes", "timing": "3 days", "measured": "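Imaged Hoechst DNA stain sorts each cell into a cycle phase by DNA amount; per plate, G2 fraction set to 0% for non-targeting and 100% for GMNN siRNA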", "reading the numbers": "G2 robust z-score: higher = more G2 cells, more excess DNA replication", "call rule": "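Active siRNAs have a G2 robust z of 5 or more median absolute deviations over the median, which in these data means about 38% or higher of GMNN control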", "note": "In all, the deposit lists about 59,000 reagents; shown is a part drawn at random. About 1,550 of all reagents (2.6%) were called active. 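G2 share is only a proxy for re-replication; each gene was hit by three separate siRNAs, and active genes were retested.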 A number with no mark means an inactive call. Further read-outs or replicates are left out here. Not stated in the record: the amount of reagent."}
{"gene knocked down": "UGT1A10", "PubChem SID": "SID160731457", "G2 robust z-score": -0.56}
{"gene knocked down": "UGT1A10", "PubChem SID": "SID160741940", "G2 robust z-score": 0.47}
{"gene knocked down": "UGT1A10", "PubChem SID": "SID160741941", "G2 robust z-score": 1.36}
{"gene knocked down": "CLDN22", "PubChem SID": "SID160724431", "G2 robust z-score": -0.598}
{"gene knocked down": "CLDN22", "PubChem SID": "SID160741490", "G2 robust z-score": -0.672}
{"gene knocked down": "CLDN22", "PubChem SID": "SID160741491", "G2 robust z-score": -0.23}
{"gene knocked down": "ZCCHC10", "PubChem SID": "SID160742232", "G2 robust z-score": 0.209}
{"gene knocked down": "ZCCHC10", "PubChem SID": "SID160742233", "G2 robust z-score": 0.572}
{"gene knocked down": "ZCCHC10", "PubChem SID": "SID160742234", "G2 robust z-score": 0.00292}
{"gene knocked down": "CDA", "PubChem SID": "SID160739907", "G2 robust z-score": 3.61}
{"gene knocked down": "CDA", "PubChem SID": "SID160739918", "G2 robust z-score": -0.482}
{"gene knocked down": "CDA", "PubChem SID": "SID160739929", "G2 robust z-score": -0.833}
{"gene knocked down": "PIP4K2A", "PubChem SID": "SID160714366", "G2 robust z-score": -0.722}
{"gene knocked down": "PIP4K2A", "PubChem SID": "SID160714367", "G2 robust z-score": -1.18}
{"gene knocked down": "PIP4K2A", "PubChem SID": "SID160714368", "G2 robust z-score": -0.939}
{"gene knocked down": "ZMYND11", "PubChem SID": "SID160729183", "G2 robust z-score": -0.229}
{"gene knocked down": "ZMYND11", "PubChem SID": "SID160729184", "G2 robust z-score": 0.378}
{"gene knocked down": "ZMYND11", "PubChem SID": "SID160729185", "G2 robust z-score": -0.135}

Reformatted: results already given.
gene knocked down | PubChem SID | G2 robust z-score
PIP4K2A | SID160714367 | -1.18
PIP4K2A | SID160714368 | -0.939

The list goes on:
{"gene knocked down": "DCAF15", "PubChem SID": "SID160753673", "G2 robust z-score": -0.294}
{"gene knocked down": "DCAF15", "PubChem SID": "SID160753674", "G2 robust z-score": -1.12}
{"gene knocked down": "DCAF15", "PubChem SID": "SID160753675", "G2 robust z-score": -0.245}
{"gene knocked down": "RHOU", "PubChem SID": "SID160731628", "G2 robust z-score": -0.198}
{"gene knocked down": "RHOU", "PubChem SID": "SID160746815", "G2 robust z-score": 0.0512}
{"gene knocked down": "RHOU", "PubChem SID": "SID160746816", "G2 robust z-score": 2.25}
{"gene knocked down": "SPMIP3", "PubChem SID": "SID160732647", "G2 robust z-score": 0.27}
{"gene knocked down": "SPMIP3", "PubChem SID": "SID160760815", "G2 robust z-score": -0.398}
{"gene knocked down": "SPMIP3", "PubChem SID": "SID160760816", "G2 robust z-score": -0.147}
{"gene knocked down": "MRPS5", "PubChem SID": "SID160748178", "G2 robust z-score": 1.67}
{"gene knocked down": "MRPS5", "PubChem SID": "SID160748180", "G2 robust z-score": -1.07}
{"gene knocked down": "MRPS5", "PubChem SID": "SID160748181", "G2 robust z-score": -0.084}
